PubChem BioAssay AID686943 – Drosophila RNAi Screening Center | 2013

- Assay: 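Search across the genome for regulators of signalling from receptor tyrosine kinase to ERK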 (primary screen)
- Cell system: Drosophila S2R+ haemocyte-like cells expressing YFP-tagged ERK (Rolled)
- Reagents: long dsRNA against Drosophila genes
- Challenge: insulin stimulation versus unstimulated cells; dose and duration not given
- Measurement: 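Antibody staining for doubly phosphorylated ERK divided by ERK-YFP signal, as plate z-scores, in insulin-treated and untreated cells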
- Direction: replicate 1, z-score of dpERK with insulin: higher = more active ERK per ERK-YFP after insulin
The deposit covers about 23,000 reagents; shown is a random part of those with a known target gene and a result. 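Extra replicates exist only for a retested subset of genes; insulin dose and duration not given; both raised and lowered dpERK matter.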 Reagents against one gene are numbered here. A plus sign joins genes that one reagent is predicted to hit. Not all columns of the deposit are shown. Reagent sequences are not shown. Not given: the amount of reagent, the time to read-out.

no.	gene	reagent no.	replicate 1, z-score of dpERK with insulin
1	rdhB	1	-0.51
2	Fancl	1	-0.54
3	CG9213	1	-0.38
4	Srp14	1	-0.04
5	Tmf	1	0.53
6	Cpr100A	1	0.09
7	CG1440	1	1
8	Atg18b	1	1.28
9	Oatp58Da	1	1.55
10	dnc	1	-2.32
11	dnc	2	-1.38
12	dnc	3	-0.97
13	dnc	4	0.45
14	dnc	5	-1.25
15	CG7741	1	0.84
16	Vha14-1	1	0.38
17	CG13950	1	-0.24
18	ncm	1	2.17
19	CG32195	1	-0.25
20	fd96Ca	1	-2.59
21	velo	1	1.13
22	velo	2	2.22
23	Lztr1	1	1.3
24	Lztr1	2	1.1
25	CG43707	1	0.22
26	CG43707	2	-0.2
27	CG43707	3	0.58
28	CG14014	1	-0.2
29	Mppe	1	-0.16
30	CG13217	1	0.07
31	P5cr	1	0.78
32	GC1	1	-0.92
33	CG32176	1	-0.5
34	CG32176	2	-1.13
35	Rcd-1	1	2.65
36	CG11374	1	0.2
37	Ccp84Ae	1	0.13
38	mEFTu1	1	-0.1
39	CG31688 + CG31687	1	-0.36
40	Hmbs	1	0.41
41	CG8952	1	0.07
42	stan	1	-3.24
43	stan	2	-0.05
44	CG6271	1	0.89
45	mh	1	-0.75
46	CG12594	1	1.18
47	CG34204	1	-0.19
48	CG5973	1	-1.31
49	alpha-Est10	1	0.88
50	CG8036	1	-0.25
51	CG10943	1	-0.19
52	Src42A	1	0.6
53	Src42A	2	-4.88
54	CG42249	1	0.38
55	CG42249	2	-0.23
56	CG16903	1	1.52
57	GABA-B-R1	1	-0.19
